Measured values reported in article PMC6712773.
No constants are given. Whether binding was seen depends on the method and setting. In cells and extracts the contact can be indirect. Some results given as binding are weak or reduced against the parent protein; the word gives no strength.

Protein sequences, listed by entry. Tags and fused reporters are not part of them.
UniProt B2RYU7: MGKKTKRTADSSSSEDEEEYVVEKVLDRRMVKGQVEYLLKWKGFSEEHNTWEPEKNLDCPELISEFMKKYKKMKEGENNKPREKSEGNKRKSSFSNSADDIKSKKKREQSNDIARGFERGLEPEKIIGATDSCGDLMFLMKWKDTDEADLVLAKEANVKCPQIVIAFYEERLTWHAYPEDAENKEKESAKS
UniProt P52631: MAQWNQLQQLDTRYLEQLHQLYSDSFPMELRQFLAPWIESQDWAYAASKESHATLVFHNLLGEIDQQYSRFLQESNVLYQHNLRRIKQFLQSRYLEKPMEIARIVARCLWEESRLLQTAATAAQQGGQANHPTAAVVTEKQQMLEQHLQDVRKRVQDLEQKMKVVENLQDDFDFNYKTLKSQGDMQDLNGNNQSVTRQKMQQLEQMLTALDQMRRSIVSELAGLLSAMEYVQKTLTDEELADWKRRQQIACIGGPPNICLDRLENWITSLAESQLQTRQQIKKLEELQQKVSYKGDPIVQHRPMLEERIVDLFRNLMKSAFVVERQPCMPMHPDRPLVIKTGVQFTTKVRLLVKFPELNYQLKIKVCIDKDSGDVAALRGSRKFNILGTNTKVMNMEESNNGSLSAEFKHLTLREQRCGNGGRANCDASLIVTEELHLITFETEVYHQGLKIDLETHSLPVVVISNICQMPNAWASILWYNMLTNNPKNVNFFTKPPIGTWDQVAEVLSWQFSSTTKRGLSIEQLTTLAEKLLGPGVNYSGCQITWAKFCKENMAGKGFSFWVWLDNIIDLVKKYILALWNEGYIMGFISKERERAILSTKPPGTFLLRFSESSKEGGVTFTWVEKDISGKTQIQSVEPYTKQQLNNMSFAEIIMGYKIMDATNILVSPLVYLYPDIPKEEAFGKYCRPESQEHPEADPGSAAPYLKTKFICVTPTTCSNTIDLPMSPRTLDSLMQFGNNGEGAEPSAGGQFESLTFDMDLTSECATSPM

Target: Heterochromatin Protein 1 alpha (HP1α) (rat (endogenous in primary cortical neurons)) (UniProt B2RYU7)
Experiment: co-IP; whole-cell RIPA extracts of 9-DIV primary rat cortical neurons; 300 ug protein incubated overnight at 4 °C with HP1α antibody (CST #2616), magnetic beads (Active Motif Universal Magnetic Co-IP kit), blot for STAT3 (CST #4904); cells treated 30 min with water or 0.7 nM BDNF, with 1 h pretreatment with DMSO, 10 uM WP1066 or 10 uM Ruxolitinib

For “Signal Transducer and Activator of Transcription 3 (STAT3) (from UniProt P52631 1-770)”, the binding was “binds”.
